Measured data: PubChem BioAssay AID686943 (Drosophila RNAi Screening Center, 2013)
The screen tested about 23,000 reagents; this is a random part of those that have a named target and a result. 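Extra replicates exist only for a retested subset of genes; insulin dose and duration not given; both raised and lowered dpERK matter.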 Reagents against one gene are numbered here. Further read-outs or replicates are left out here. Not given: the amount of reagent, the time to read-out.

- Aim: 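Knockdowns that increase or decrease active ERK after insulin receptor stimulation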 (primary screen)
- Cells: Drosophila S2R+ haemocyte-like cells expressing YFP-tagged ERK (Rolled)
- Reagents: long dsRNA against Drosophila genes
- Challenge: insulin stimulation versus unstimulated cells; dose and duration not given
- Detection: 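Antibody staining for doubly phosphorylated ERK divided by ERK-YFP signal, as plate z-scores, in insulin-treated and untreated cells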
- Scale: replicate 1, z-score of dpERK with insulin and replicate 2, z-score of dpERK with insulin: higher = more active ERK per ERK-YFP after insulin

How did the screen score eIF1?
replicate 1, z-score of dpERK with insulin: 0.77; replicate 2, z-score of dpERK with insulin: 0.86

For Gr39a #1, what does the deposit list?
replicate 1, z-score of dpERK with insulin: -1.22; replicate 2, z-score of dpERK with insulin: 1.95

For Gr39a #2, what was measured?
replicate 1, z-score of dpERK with insulin: -0.82; replicate 2, z-score of dpERK with insulin: 0.82

With CG7329, how do the results read?
replicate 1, z-score of dpERK with insulin: -0.03; replicate 2, z-score of dpERK with insulin: -0.04

Which result is listed for metro #1?
replicate 1, z-score of dpERK with insulin: 0.57; replicate 2, z-score of dpERK with insulin: 0.26

How did the screen score metro #2?
replicate 1, z-score of dpERK with insulin: -0.63; replicate 2, z-score of dpERK with insulin: -0.23

Which result is listed for Mps1?
replicate 1, z-score of dpERK with insulin: 0.44; replicate 2, z-score of dpERK with insulin: -0.18

What did the screen give for Chmp1?
replicate 1, z-score of dpERK with insulin: -0.26; replicate 2, z-score of dpERK with insulin: -1.08

What is on record for scyl?
replicate 1, z-score of dpERK with insulin: -0.49; replicate 2, z-score of dpERK with insulin: -0.64

Which result is listed for Rpn2?
replicate 1, z-score of dpERK with insulin: -7.54; replicate 2, z-score of dpERK with insulin: -4.31

What did the screen give for Rcd2?
replicate 1, z-score of dpERK with insulin: -3.03; replicate 2, z-score of dpERK with insulin: -1.53

What is on record for mtm?
replicate 1, z-score of dpERK with insulin: -0.77; replicate 2, z-score of dpERK with insulin: -1.4

Entries above whose gene name begins with C or c:
CG7329 | replicate 1, z-score of dpERK with insulin: -0.03; replicate 2, z-score of dpERK with insulin: -0.04
Chmp1 | replicate 1, z-score of dpERK with insulin: -0.26; replicate 2, z-score of dpERK with insulin: -1.08
